From PubChem BioAssay AID758 (NMMLSC, 2007)
The campaign covered roughly 190,000 compounds. About 110 (0.058%) were called active. The inconclusive results got no clear call from the source; some entries with a clear call stand among them for comparison.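 The calls were made as follows: active = fluorescent GTP binding to Rab7 beads changed by at least 20 points from the 100% baseline, either direction, mostly lower; inconclusive = compound itself probably fluorescent, or too few beads counted; inactive = the rest.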

tested on: Rab7 GTPase wild type (dog), Bodipy-FL-GTP binding; assay: modulators of GTP binding to Rab7, primary screen, biochemical, wildtype, multiplex bead flow cytometry (AID 758); conditions: GST-Rab7 beads, fluorescent GTP binding, at 10 µM, actives lie on both sides, untreated = 100%, excess cold GTP = 0%;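 also: median green fluorescence of bound Bodipy-FL-GTP per Rab7 bead population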

| SMILES | GTP binding activity (percent of control) |
| --- | --- |
| COc1ccc(-c2nnc3ccc(SCC(=O)N4CCCCC4)nn23)cc1OC | inconclusive: 94% |
| O=S(=O)(Cc1cc(N2CCOCC2)nc(-c2ccccn2)n1)c1ccccc1 | inconclusive: 94% |
| O=C(Nc1nc(-c2cccs2)cs1)c1cc2ccccc2oc1=O | inconclusive: 82% |
| CCOC(=O)c1cc(C)n(-c2ccc(OC)c(OC)c2)c1C | inconclusive: 87% |
| CNC(=S)NNC(=O)Cc1ccc(O)cc1 | inconclusive: 103% |
| Cc1cc(C)nc(Nc2ncc(O)n2-c2ccc(Br)cc2)n1 | inactive: 100% |
| N#CCCN1CCN(C(=S)c2ccc(-c3cc(Cl)ccc3Cl)o2)CC1 | inconclusive: 93% |
| Cc1cc(N2CCCC2=O)c(N)cc1N | inconclusive: 91% |
| CCC(CC)C(=O)c1c[nH]c(C(=O)N2CCN(c3ccccc3)CC2)c1 | inactive: 93% |
| O=C(Nc1ccccc1Cl)N1CCN(c2ccc3nnc(-c4ccc(F)cc4)n3n2)CC1 | inconclusive: 97% |
| O=C(Nc1ccc(Cl)cc1)N1CCN(c2ccc3nnc(-c4ccc(F)cc4)n3n2)CC1 | inconclusive: 86% |
| CC(=O)c1c(C)[nH]c(C(=O)O)c1C | inconclusive: 95% |
| CCN=C1SC(C(=O)Nc2cccc(C)c2)CC(=O)N1CC (stereo unspecified) | inconclusive: 102% |
| NC(=S)N=Nc1c(O)[nH]c2cc(F)c(F)cc12 | inactive: 90% |
| CCCCNC(=S)Nc1ccc(-c2nc3ccc(C)cc3s2)cc1 | inconclusive: 103% |
| O=C(Cn1nnc2c(cnn2-c2ccccc2)c1=O)NCc1cccs1 | inconclusive: 91% |
| CC(C)c1ccc(CN2CC(C(=O)Nc3ccccc3)CC2=O)cc1 (stereo unspecified) | inconclusive: 89% |
| Cc1ccc(NC(=O)CO/N=C/c2ccc(N(C)C)cc2)cc1 | inconclusive: 114% |
| Cc1ccc(C(=O)Nc2cccc([N+](=O)[O-])c2)cc1S(=O)(=O)Nc1ccc(C(=O)O)cc1 | inconclusive: 92% |
| O=c1c2ccccc2nc(SCc2nc(-c3ccccc3)no2)n1-c1ccc(F)cc1 | inconclusive: 100% |
| Cc1nc(NC(=O)CSc2nnc(-c3ccc4c(c3)OCO4)o2)c(Cl)cc1Cl | inconclusive: 102% |
| CCOCc1[nH]c(=S)[nH]c(=O)c1Cc1ccc(OC(C)C)cc1 | inconclusive: 94% |
| CSCC[C@@H](C(=O)NCc1cccs1)N1Cc2ccccc2C1=O | inconclusive: 105% |

| SMILES | GTP binding activity (percent of control) |
| --- | --- |
| Cc1ccccc1NC(=O)OCc1cccnc1Sc1ccc(Cl)cc1 | inconclusive: 91% |
| CCC(=O)N1CCN(c2ccc(NC(=S)NC(=O)c3ccc(OC)c([N+](=O)[O-])c3)cc2)CC1 | inconclusive: 98% |
| O=C(CSc1nc(O)c(Cc2ccccc2)c(=O)[nH]1)Nc1nc2c(s1)CCCC2 | inconclusive: 92% |
| CCn1c2ccccc2c2cc(NC(=S)N3CCOCC3)ccc21 | inconclusive: 110% |
| O=C(C1=C[C@H](C2CC2)C[C@H](OCc2ccc(CO)cc2)O1)N1CCOCC1 | inactive: 103% |
| Cc1cc(N2CCOCC2)nc2ccc(NC(=O)CCC(=O)N3CCCC(C)C3)cc12 (stereo unspecified) | inconclusive: 100% |
| Cc1ccc(F)cc1CNC(=O)c1cc(COc2ccc3ncccc3c2)on1 | inconclusive: 100% |
| OC(CON=C1c2ccccc2-c2ccccc21)CN1CCNCC1 (stereo unspecified) | inconclusive: 103% |
| COc1c(Br)cc2c(C)c(C(=O)O)oc2c1Br | inconclusive: 93% |
| O=C(Nc1ccc(NC(=O)c2cccs2)cc1)c1ccc(Br)o1 | inconclusive: 96% |
| C/C(=N\OC(=O)c1ccccc1F)c1nccs1 | inconclusive: 101% |
| CC(=O)Oc1ccc2c(=O)c(-c3nc4ccccc4s3)coc2c1 | inactive: 95% |
| O=C(C1CCN(S(=O)(=O)N2CCC3(CC2)OCCO3)CC1)N1CCOCC1 | inconclusive: 100% |
| CC(C)C(C(=O)Nc1cccnc1)N1C(=O)c2ccccc2C1=O (stereo unspecified) | inconclusive: 103% |
| Cc1ccc(/C(O)=C2\C(=O)C(=O)N(CC(C)O)C2c2ccccn2)cc1 (stereo unspecified) | inactive: 100% |
| CC(=O)N1C(=O)/C(=C2\SC(=S)N(NS(=O)(=O)c3ccc(C)cc3)C2=O)c2ccccc21 | inconclusive: 90% |
| CCN(c1ccccc1)S(=O)(=O)c1ccc(OC)c(NC(=O)c2cccs2)c1 | inconclusive: 95% |
| O=C1Nc2ccccc2N(O)N1c1cc(-c2ccccc2)[nH]n1 | inconclusive: 93% |
| COc1cc(C)c(S(=O)(=O)N2CCOCC2)cc1C(C)C | inconclusive: 102% |
| COc1ccc(OC(=O)c2cccc(S(=O)(=O)N3CCCC3)c2)cc1 | inconclusive: 90% |
| N#Cc1cccc(S(=O)(=O)NCC(=O)OCC(=O)c2ccc[nH]2)c1 | inactive: 93% |
| O=C(CSc1nnc2c(n1)[nH]c1ccccc12)Nc1ccc(S(=O)(=O)Nc2ncccn2)cc1 | inconclusive: 85% |
| O=c1[nH]cnc2c1N=C(c1cccc([N+](=O)[O-])c1)CC(c1ccccc1)N2 (stereo unspecified) | inactive: 111% |

| SMILES | GTP binding activity (percent of control) |
| --- | --- |
| CC(C)(C)NC(=O)COC(=O)c1ccc(S(=O)(=O)N2CCCC2)cc1 | inactive: 103% |
| COc1ccc(/C=C2\N=C(C)N(c3ccc4ccccc4c3)C2=O)cc1OC | inconclusive: 107% |
| O=C(CSc1nnc(-c2ccncc2)n1Cc1ccccc1)NC1CCCc2ccccc21 (stereo unspecified) | inactive: 97% |
| CCn1c(SCC(=O)NNC(=O)Cc2ccccc2)nnc1-c1ccccc1 | inconclusive: 104% |
| CCOc1ccc2nc(NC3=NC(c4ccc(OC)cc4)CC(=O)N3)nc(C)c2c1 (stereo unspecified) | inconclusive: 103% |
| O=C(Nc1cccc(F)c1)C1CC(=O)N(c2ccc(Cl)cc2)C1 (stereo unspecified) | inconclusive: 97% |
| COc1ccc(C(=O)C2CCCN(Cc3ccc4nonc4c3)C2)c(OC)c1 (stereo unspecified) | inactive: 97% |
| O=C(Nc1cccc(O)c1)c1cc2nc(-c3ccccc3)cc(-c3ccccc3)n2n1 | inconclusive: 95% |
| O=c1cc(CO)oc(CN2CCN(c3ccccc3)CC2)c1O | inconclusive: 103% |
| C=CCn1c(SCC(N)=O)nnc1-c1cccc(Br)c1 | inconclusive: 102% |
| CCOC(=O)c1sc2ncn(/N=C/c3cccnc3)c(=O)c2c1C | inconclusive: 107% |
| CC(=O)Nc1ccc(N=Cc2c(O)c(C(=O)Nc3ccccc3)cc3ccccc23)cc1 | inconclusive: 140% |
| CCN(CC)C(=O)c1oc2ccc(S(=O)(=O)N3CCCCCC3)cc2c1C | inconclusive: 92% |
| COc1ccc(-c2cc(CNS(=O)(=O)c3ccccc3)on2)cc1 | inactive: 96% |
| CCC(CC)C(=O)NCc1cccnc1 | inactive: 106% |
| COc1ccc(-c2c(-c3ccc(O)cc3O)n[nH]c2C)cc1OC | inconclusive: 93% |
| COc1ccc(CN=C2Nc3ccccc3CS2)cc1 | inconclusive: 102% |
| CC(CCc1ccccc1)NS(=O)(=O)c1ccccc1 (stereo unspecified) | inactive: 98% |
| COC(=O)c1sccc1NC(=S)N1CCN(c2cc(C)ccc2C)CC1 | inactive: 95% |
| COc1cc(NC(=O)c2cc3c(C)nc4ccccc4c3o2)cc(OC)c1OC | inconclusive: 96% |
| Cc1cc(-c2ccc(Cl)cc2)n2nc(N)nc2n1 | inconclusive: 95% |
| C/C(=N\NC(=O)c1cc(C)oc1C)c1ccc(N2CCOCC2)cc1 | inconclusive: 96% |
| Cc1cc(C)c(C(=O)CN2C(=O)NC3(CCC(C)CC3)C2=O)cc1C (stereo unspecified) | inconclusive: 94% |

| SMILES | GTP binding activity (percent of control) |
| --- | --- |
| COc1ccc(NC(=O)c2cc(S(=O)(=O)N(Cc3ccccc3)c3ccccc3)ccc2Cl)cn1 | inconclusive: 101% |
| O=CN1CCN(C(=O)c2ccccc2F)CC1 | inconclusive: 90% |
| CC(C)Sc1n[nH]c2nc3c(c(=O)n12)C1(CCCC1)Cc1ccccc1-3 | inconclusive: 99% |
| CC(=O)Nc1ccc(NC(=O)COC(=O)CCc2nc3ccccc3s2)cc1 | inconclusive: 96% |
| N#Cc1nc(Cc2ccccc2)oc1NCCN1CCOCC1 | inconclusive: 99% |
| Cc1ccc2[nH]c(=O)c(CN(C(=O)c3cccs3)c3ccccc3)cc2c1 | inconclusive: 100% |
| CCN(C#N)c1nc(NC(C)C)nc(NC(C)(C)C)n1 | inconclusive: 97% |
| CSc1ccccc1NC(=O)Cn1nc([N+](=O)[O-])cc1C | inactive: 94% |
| Cc1cccc(N/N=C(\C#N)S(=O)(=O)C(C)(C)C)c1 | inconclusive: 95% |
| Cc1cccc2sc(N(CCCN(C)C)C(=O)c3nc4ccccc4s3)nc12 | inconclusive: 99% |
| CC(=O)c1ccc(OCCCC(=O)n2nnc3ccccc32)cc1 | inactive: 97% |
| O=S(=O)(N/N=C\c1cccnc1)c1ccccc1 | inconclusive: 241% |
| CCC(=O)N1c2ccc(S(=O)(=O)CCC(=O)Nc3nccs3)cc2CC1C (stereo unspecified) | inconclusive: 105% |
| CCCNC(=O)Cn1c(=O)/c(=C\c2ccc(-c3ccc([N+](=O)[O-])cc3)o2)s/c1=C\C(=O)C(C)(C)C | inconclusive: 138% |
| COc1ccc(N(CC(=O)Nc2ccc3c(c2)OCO3)S(=O)(=O)c2ccc(C)cc2)cc1OC | inconclusive: 100% |
| COc1cc(/C=N/NS(=O)(=O)c2ccccc2)ccc1OS(=O)(=O)c1ccc(C)cc1 | inconclusive: 102% |
| CCN(CC)C(=S)SCC(=O)Nc1nc(=O)c2ccccc2s1 | inactive: 93% |
| Cc1cccc(N2CN(Cc3ccco3)CNC2=S)c1 | inactive: 104% |
| O=CN1CCCN(Cc2nc(-c3cccc(Cl)c3)no2)CC1 | inactive: 94% |
| COc1ccc2nc(N3CCCC3)c(C#N)cc2c1 | inconclusive: 93% |
| Cc1ccc2oc3c(c(=O)c2c1)C(c1ccc(F)cc1)N(CCCN1CCOCC1)C3=O (stereo unspecified) | inconclusive: 101% |
| Cc1ccc2[nH]c(C(=O)NN=C3CCCCC3)c(-c3ccccc3)c2c1 | inactive: 93% |

As entered above:
Under GTP binding activity (percent of control), `Cc1cccc2sc(N(CCCN(C)C)C(=O)c3nc4ccccc4s3)nc12` reads inconclusive: 99%
Under GTP binding activity (percent of control), `CC(=O)c1ccc(OCCCC(=O)n2nnc3ccccc32)cc1` reads inactive: 97%
Under GTP binding activity (percent of control), `CSc1ccccc1NC(=O)Cn1nc([N+](=O)[O-])cc1C` reads inactive: 94%
Under GTP binding activity (percent of control), `CCCNC(=O)Cn1c(=O)/c(=C\c2ccc(-c3ccc([N+](=O)[O-])cc3)o2)s/c1=C\C(=O)C(C)(C)C` reads inconclusive: 138%
